± gives the standard deviation of the averaged measurements. This is one part of the list.
Compound: Nc1nc2c(ncn2[C@@H]2O[C@H](COP(=O)(O)OP(=O)(O)OP(=O)(O)O)[C@@H](O)[C@H]2O)c(=O)[nH]1 [guanosine triphosphate]
Assay: NP40-soluble protein abundance relative to vehicle (solubility fold change) (ratio); higher = more soluble protein in presence of GTP
Method: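 Solubility proteome profiling in Jurkat crude lysate. Lysate was treated with Mg-GTP (0.1-10 mM) for 10 min at room temperature and 3 min at 37 °C, then solubilised with 0.8% NP40 and benzonase, followed by ultracentrifugation. Proteins were quantified by TMT10 LC-MS/MS; the value is the NP40-soluble abundance relative to the NP40-processed vehicle, from 3 independent experiments.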

Chains of the proteins cited; added tags and fusions are not shown. Lines headed by an entry give the natural chain unless they say otherwise; changes in a name come on top.
UniProt P30520: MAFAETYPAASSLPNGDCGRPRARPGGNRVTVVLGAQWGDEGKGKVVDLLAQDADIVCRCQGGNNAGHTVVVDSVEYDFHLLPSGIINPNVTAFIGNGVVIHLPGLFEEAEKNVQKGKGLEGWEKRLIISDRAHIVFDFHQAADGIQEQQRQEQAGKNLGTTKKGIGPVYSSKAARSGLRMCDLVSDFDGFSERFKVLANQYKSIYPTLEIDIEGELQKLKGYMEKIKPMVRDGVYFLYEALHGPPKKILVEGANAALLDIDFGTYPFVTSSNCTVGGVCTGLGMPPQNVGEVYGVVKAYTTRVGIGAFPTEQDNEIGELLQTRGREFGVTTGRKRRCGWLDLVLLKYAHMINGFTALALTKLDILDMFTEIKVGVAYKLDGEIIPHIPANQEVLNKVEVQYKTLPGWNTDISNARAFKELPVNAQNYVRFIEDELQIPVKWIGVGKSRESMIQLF
UniProt P30260, whole entry: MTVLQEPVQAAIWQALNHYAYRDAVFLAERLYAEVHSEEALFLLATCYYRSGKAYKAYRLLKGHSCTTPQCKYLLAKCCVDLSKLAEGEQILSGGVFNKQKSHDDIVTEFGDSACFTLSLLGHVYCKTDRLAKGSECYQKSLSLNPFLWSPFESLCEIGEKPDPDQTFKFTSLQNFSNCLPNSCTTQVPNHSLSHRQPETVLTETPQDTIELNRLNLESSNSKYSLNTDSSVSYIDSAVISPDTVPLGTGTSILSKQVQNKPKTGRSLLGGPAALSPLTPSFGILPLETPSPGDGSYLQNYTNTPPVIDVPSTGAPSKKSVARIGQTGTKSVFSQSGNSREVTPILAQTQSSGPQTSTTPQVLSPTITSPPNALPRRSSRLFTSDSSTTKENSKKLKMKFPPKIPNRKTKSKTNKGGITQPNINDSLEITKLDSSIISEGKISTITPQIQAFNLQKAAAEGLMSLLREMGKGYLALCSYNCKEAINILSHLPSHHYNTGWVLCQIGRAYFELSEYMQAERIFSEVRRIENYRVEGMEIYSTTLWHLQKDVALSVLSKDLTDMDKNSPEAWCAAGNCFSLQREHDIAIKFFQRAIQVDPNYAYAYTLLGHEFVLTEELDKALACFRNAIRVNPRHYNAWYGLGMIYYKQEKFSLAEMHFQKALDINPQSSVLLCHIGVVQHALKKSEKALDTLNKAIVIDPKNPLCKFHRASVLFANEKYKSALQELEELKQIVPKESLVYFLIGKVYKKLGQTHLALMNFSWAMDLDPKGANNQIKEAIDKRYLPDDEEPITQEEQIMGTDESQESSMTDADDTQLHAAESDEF
UniProt P45983: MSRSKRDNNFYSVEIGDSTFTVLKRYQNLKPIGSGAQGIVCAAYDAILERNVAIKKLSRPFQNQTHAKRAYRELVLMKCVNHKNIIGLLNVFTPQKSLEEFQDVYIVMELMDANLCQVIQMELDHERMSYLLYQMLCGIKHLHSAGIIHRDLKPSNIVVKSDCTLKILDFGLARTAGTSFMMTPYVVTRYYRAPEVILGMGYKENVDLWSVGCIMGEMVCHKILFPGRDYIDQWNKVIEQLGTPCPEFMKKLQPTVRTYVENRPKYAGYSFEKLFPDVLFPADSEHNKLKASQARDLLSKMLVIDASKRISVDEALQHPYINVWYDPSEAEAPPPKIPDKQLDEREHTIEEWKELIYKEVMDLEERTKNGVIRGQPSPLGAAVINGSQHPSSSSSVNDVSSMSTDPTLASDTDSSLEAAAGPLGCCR
UniProt P38606, whole entry: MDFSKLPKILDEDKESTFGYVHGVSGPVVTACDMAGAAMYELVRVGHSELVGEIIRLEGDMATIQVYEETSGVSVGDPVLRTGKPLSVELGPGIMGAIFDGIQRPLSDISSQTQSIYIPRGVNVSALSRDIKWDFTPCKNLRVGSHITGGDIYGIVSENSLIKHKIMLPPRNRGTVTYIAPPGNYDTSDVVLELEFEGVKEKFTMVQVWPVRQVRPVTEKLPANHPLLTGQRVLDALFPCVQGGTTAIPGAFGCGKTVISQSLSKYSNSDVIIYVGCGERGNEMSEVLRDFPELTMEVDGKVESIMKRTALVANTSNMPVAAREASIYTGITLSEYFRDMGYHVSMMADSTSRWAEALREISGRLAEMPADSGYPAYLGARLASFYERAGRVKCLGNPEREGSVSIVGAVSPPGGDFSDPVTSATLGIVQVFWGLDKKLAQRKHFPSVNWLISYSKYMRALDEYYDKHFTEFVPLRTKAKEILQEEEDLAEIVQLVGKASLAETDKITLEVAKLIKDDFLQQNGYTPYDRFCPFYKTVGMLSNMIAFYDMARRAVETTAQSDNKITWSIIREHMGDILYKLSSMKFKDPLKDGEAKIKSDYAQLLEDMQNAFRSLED

Target	NP40-soluble protein abundance (concentration: 0.1mM)	NP40-soluble protein abundance (concentration: 0.5mM)	NP40-soluble protein abundance (concentration: 1mM)	NP40-soluble protein abundance (concentration: 2mM)	NP40-soluble protein abundance (concentration: 4mM)	NP40-soluble protein abundance (concentration: 6mM)	NP40-soluble protein abundance (concentration: 8mM)	NP40-soluble protein abundance (concentration: 10mM)
RPL5 (UniProt P46777)	0.986 ± 0.019	1.01 ± 0.03	1 ± 0.046	0.941 ± 0.077	0.895 ± 0.094	0.87 ± 0.1	0.837 ± 0.08	0.888 ± 0.094
UniProt P30520	0.969 ± 0.018	0.959 ± 0.025	0.964 ± 0.035	0.902 ± 0.043	0.924 ± 0.034	0.915 ± 0.043	0.923 ± 0.048	0.884 ± 0.049
UniProt P30260 and related entries	1.08 ± 0.039	1.1 ± 0.083	1.12 ± 0.086	1.18 ± 0.14	1.19 ± 0.17	1.24 ± 0.19	1.25 ± 0.18	1.17 ± 0.22
UniProt P45983 and related entries	0.996 ± 0.083	1 ± 0.043	0.987 ± 0.08	0.947 ± 0.059	0.907 ± 0.1	0.914 ± 0.1	0.964 ± 0.075	0.879 ± 0.064
ATP6V1A (UniProt P38606)	1.02 ± 0.021	1.07 ± 0.038	0.966 ± 0.043	0.99 ± 0.078	0.961 ± 0.074	0.966 ± 0.094	0.925 ± 0.034	0.908 ± 0.043
